From article PMC4468853

Protein sequences, listed by entry. Tags and fused reporters are not part of them.
UniProt Q8WW35: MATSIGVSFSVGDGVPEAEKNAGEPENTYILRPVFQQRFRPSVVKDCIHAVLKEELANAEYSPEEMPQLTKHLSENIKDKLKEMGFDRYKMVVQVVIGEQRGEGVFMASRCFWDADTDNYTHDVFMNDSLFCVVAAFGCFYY
UniProt Q9NP97: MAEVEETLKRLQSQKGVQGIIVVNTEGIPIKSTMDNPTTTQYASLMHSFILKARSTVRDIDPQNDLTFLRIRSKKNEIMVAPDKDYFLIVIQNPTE
UniProt P51808: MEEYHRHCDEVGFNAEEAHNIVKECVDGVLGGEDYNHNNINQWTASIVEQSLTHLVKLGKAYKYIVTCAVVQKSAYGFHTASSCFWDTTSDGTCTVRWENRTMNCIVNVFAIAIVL
UniProt Q96EX3: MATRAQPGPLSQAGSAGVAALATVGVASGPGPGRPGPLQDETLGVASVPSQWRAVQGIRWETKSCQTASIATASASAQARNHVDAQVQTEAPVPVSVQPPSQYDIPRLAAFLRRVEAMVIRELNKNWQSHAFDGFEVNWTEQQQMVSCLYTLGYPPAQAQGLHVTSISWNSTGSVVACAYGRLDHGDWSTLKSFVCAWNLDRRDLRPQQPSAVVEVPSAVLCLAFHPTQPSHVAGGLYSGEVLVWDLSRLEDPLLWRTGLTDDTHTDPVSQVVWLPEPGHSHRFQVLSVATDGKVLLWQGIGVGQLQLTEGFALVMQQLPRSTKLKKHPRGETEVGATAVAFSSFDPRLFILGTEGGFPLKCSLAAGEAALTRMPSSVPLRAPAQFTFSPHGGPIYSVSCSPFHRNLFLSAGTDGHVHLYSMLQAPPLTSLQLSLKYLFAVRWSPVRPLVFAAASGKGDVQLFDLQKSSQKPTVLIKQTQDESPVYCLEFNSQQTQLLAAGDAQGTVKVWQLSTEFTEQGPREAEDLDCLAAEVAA
UniProt Q8WVS4: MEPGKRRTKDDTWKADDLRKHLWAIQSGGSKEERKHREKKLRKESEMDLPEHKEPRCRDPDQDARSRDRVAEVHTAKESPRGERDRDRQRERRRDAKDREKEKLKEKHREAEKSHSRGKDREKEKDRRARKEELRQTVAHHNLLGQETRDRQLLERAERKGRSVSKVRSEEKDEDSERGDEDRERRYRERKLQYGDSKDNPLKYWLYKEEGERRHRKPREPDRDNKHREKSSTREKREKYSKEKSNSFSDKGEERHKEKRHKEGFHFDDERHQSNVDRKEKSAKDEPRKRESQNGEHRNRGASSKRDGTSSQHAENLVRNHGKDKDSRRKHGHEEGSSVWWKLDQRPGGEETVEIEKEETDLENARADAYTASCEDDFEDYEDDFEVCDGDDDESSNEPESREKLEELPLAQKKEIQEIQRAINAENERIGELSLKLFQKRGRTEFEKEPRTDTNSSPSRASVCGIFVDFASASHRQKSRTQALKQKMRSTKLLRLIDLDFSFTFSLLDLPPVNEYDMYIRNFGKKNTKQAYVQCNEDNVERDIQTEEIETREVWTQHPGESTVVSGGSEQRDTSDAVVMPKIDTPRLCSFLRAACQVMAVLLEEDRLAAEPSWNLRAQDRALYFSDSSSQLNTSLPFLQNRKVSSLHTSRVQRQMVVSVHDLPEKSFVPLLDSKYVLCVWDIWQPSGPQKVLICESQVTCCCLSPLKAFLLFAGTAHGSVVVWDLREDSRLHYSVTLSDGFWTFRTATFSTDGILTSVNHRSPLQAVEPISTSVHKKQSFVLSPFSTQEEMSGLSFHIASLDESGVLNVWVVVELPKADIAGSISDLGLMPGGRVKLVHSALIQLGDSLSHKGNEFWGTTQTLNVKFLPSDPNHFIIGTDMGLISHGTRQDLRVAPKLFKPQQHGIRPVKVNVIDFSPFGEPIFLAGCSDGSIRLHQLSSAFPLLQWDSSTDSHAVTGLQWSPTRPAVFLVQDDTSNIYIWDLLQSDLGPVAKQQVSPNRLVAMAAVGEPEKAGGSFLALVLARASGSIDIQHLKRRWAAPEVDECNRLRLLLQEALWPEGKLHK

target: SF-TAP (Streptavidin/FLAG Tandem Affinity Purification)-tagged TCTEX1D2 (human) (UniProt Q8WW35); assay: affinity purification with mass spectrometry; SF-TAP-tagged TCTEX1D2 expressed in HEK293T cells; cells expressing SF-TAP-RAF1 as control

binding, binds:
DYNLRB1 (from UniProt Q9NP97 1-96)
DYNLT3 (from UniProt P51808 1-116)
WDR34 (from UniProt Q96EX3 1-536)
WDR60 (from UniProt Q8WVS4 1-1066)

Results are given in words; binding and its absence hold for the method and conditions named. Binding seen in cells or lysates may run through a third protein. Here binding means that the protein was enriched with, or labelled near, the bait; the list need not be complete.
